Counter-ions that a name gives are not always drawn. This is one part of the list. Repeats in this data set agree poorly, so a single value says little.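 Human kidney-derived cells stably carry a construct in which eight TEAD-binding elements drive luciferase, measured by luminescence in a drug-repurposing library screen. A hit is any compound whose signal exceeds the plate mean by more than five robust Z scores.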
System: HEK293A TEAD-LUC reporter
Assay: TEAD-luciferase reporter activity (YAP activation), robust Z score vs plate; higher = stronger YAP/TEAD activation
Settings: 24 h

| SMILES | TEAD-luciferase reporter activity (compound concentration: 200 nM) | TEAD-luciferase reporter activity (compound concentration: 2 uM) | TEAD-luciferase reporter activity (compound concentration: 10 uM) |
| --- | --- | --- | --- |
| CC(=O)N[C@@H](CSSC[C@H](NC(C)=O)C(=O)O)C(=O)O [D-7193 (as di-L-lysine salt)] | inactive: -0.936 | inactive: -0.0401 | inactive: -1.05 |
| CCC(C)(C)C(=O)O[C@H]1C[C@@H](C)C=C2C=C[C@H](C)[C@H](CC[C@@H]3C[C@@H](O)CC(=O)O3)[C@H]21 [Simvastatin] | – | inactive: -0.561 | – |
| CCC(C)(C)C(=O)O[C@H]1C[C@@H](C)C=C2C=C[C@H](C)[C@H](CC[C@@H]3C[C@@H](O)CC(=O)O3)[C@H]21 | inactive: 0.443 | – | inactive: 1.15 |
| CC1CC/C(=N/Nc2ccccc2)c2ncc(C(=O)O)c(=O)n21 (stereo not given) [Chinoin-1045] | inactive: 0.21 | inactive: -0.441 | inactive: -0.00427 |
| O=C(c1cccnc1)N1CCN(c2cccc(C(F)(F)F)c2)CC1 | inactive: -1.4 | inactive: -1.97 | inactive: -0.283 |
| CC1=C(C(=O)OC(C)C)C(c2cccc([N+](=O)[O-])c2)C(C(=O)OC2CN(C(c3ccccc3)c3ccccc3)C2)=C(N)N1 (stereo not given) [azelnidipine] | inactive: -0.774 | inactive: -0.0369 | inactive: 0.128 |
| C=CCOC(Cn1ccnc1)c1ccc(Cl)cc1Cl (stereo not given) [enilconazole] | inactive: -1.8 | inactive: -0.628 | inactive: 1.27 |
| CCCNC[C@]1(O)[C@H](C)O[C@@H](O[C@H]2[C@H](C)[C@@H](O[C@@H]3O[C@H](C)C[C@H](N(C)C)[C@H]3O)[C@](C)(O)C[C@@H](C)CN[C@H](C)[C@@H](O)[C@](C)(O)[C@@H](CC)OC(=O)[C@@H]2C)C[C@@]1(C)OC [Tulathromycin A] | inactive: -1.89 | inactive: 0.251 | inactive: -0.119 |
| Cc1cc(C)nc(NS(=O)(=O)c2ccc(N)cc2)n1 | inactive: -1.65 | inactive: -1.29 | inactive: -2.35 |
| COC(=O)NC1CCN(c2nc3ncccc3o2)CC1 | inactive: -0.647 | – | inactive: -0.777 |
| O=C(CSc1nnc(Br)n1-c1ccc(C2CC2)c2ccccc12)Nc1ccc(C(=O)O)cc1Cl | inactive: -1.86 | inactive: -2.68 | inactive: -0.912 |
| CCCCN(CCCC)CCCOc1ccc(C(=O)c2c(-c3ccccc3)c(Br)c3ccccn23)cc1Cl [rilozarone] | inactive: -0.14 | inactive: -0.858 | inactive: 0.865 |
| CC(C)OC(=O)COc1cccc(CN(Cc2ccc(-n3cccn3)cc2)S(=O)(=O)c2cccnc2)c1 [Taprenepag isopropyl] | inactive: -0.946 | inactive: -0.604 | inactive: 0.546 |
| CN1CCC(C(=O)N2CCC3(CC2)CC(NC(=O)N(C)C)c2ccccc2O3)CC1 (stereo not given) | inactive: -1.96 | – | inactive: -0.948 |
| CC(=O)C(=Cc1cc(O)c(O)c([N+](=O)[O-])c1)C(C)=O | inactive: -0.644 | inactive: -0.777 | inactive: -0.539 |
| CC12CCC(C[N+](C)(CCC[N+](C)(C)C)C1)C2(C)C (stereo not given) | inactive: -1.95 | inactive: -0.898 | inactive: 0.54 |
| CCC[C@H](N[C@@H](C)C(=O)N1[C@H](C(=O)O)C[C@@H]2CCCC[C@@H]21)C(=O)OCC | inactive: -1.72 | – | inactive: -0.309 |
| CCC[C@H](N[C@@H](C)C(=O)N1[C@H](C(=O)O)C[C@@H]2CCCC[C@@H]21)C(=O)OCC [perindopril] | – | inactive: -0.57 | – |
| CC(=O)NC1CC2(CCN(C(=O)Cc3ccc(O)cc3)CC2)c2ccccc21 (stereo not given) | inactive: -2.04 | – | inactive: -0.155 |
| C=CC1=C(C)c2cc3[nH]c(cc4nc(cc5[nH]c(cc1n2)c(C)c5C=C)C(C)=C4CCC(=O)O)c(CCC(=O)O)c3C | inactive: -0.991 | inactive: -0.899 | inactive: -1.34 |
| Cc1nsc(NC(=O)c2ccccc2)c1C(=O)Nc1ccc(Cl)cc1 [denotivir] | inactive: -1.07 | inactive: -0.795 | inactive: 1.34 |
| CCOC(=O)Cc1nc(-c2ccc(Cl)cc2)oc1-c1ccco1 | inactive: 0.733 | inactive: -0.965 | inactive: 1 |
| NC(=O)C1(NC(=O)[C@H](Cc2ccccc2)NC(=O)[C@@H](Cc2c[nH]c3ccccc23)NC(=O)[C@@H](Cc2csc3ccccc23)NC(=O)C2CCNCC2)CCNCC1 [Relamorelin] | inactive: -0.713 | inactive: -1.2 | inactive: 1.37 |
| CC1Nc2ccn3ncc(c3n2)C(=O)NC[C@H](C)Oc2ccc(F)cc21 (stereo not given in full) | inactive: -0.558 | – | inactive: -1.78 |

Single entries from above.
CCC(C)(C)C(=O)O[C@H]1C[C@@H](C)C=C2C=C[C@H](C)[C@H](CC[C@@H]3C[C@@H](O)CC(=O)O3)[C@H]21 [Simvastatin] | TEAD-luciferase reporter activity (compound concentration: 2 uM): inactive: -0.561
O=C(c1cccnc1)N1CCN(c2cccc(C(F)(F)F)c2)CC1 | TEAD-luciferase reporter activity (compound concentration: 2 uM): inactive: -1.97
NC(=O)C1(NC(=O)[C@H](Cc2ccccc2)NC(=O)[C@@H](Cc2c[nH]c3ccccc23)NC(=O)[C@@H](Cc2csc3ccccc23)NC(=O)C2CCNCC2)CCNCC1 [Relamorelin] | TEAD-luciferase reporter activity (compound concentration: 10 uM): inactive: 1.37
CC1CC/C(=N/Nc2ccccc2)c2ncc(C(=O)O)c(=O)n21 (stereo not given) [Chinoin-1045] | TEAD-luciferase reporter activity (compound concentration: 200 nM): inactive: 0.21

The listing continues:

| SMILES | TEAD-luciferase reporter activity (compound concentration: 200 nM) | TEAD-luciferase reporter activity (compound concentration: 2 uM) | TEAD-luciferase reporter activity (compound concentration: 10 uM) |
| --- | --- | --- | --- |
| COC(=O)[C@@H](c1ccccc1)N1CCC(c2ccc(NC(=O)c3ccccc3-c3ccc(C(F)(F)F)cc3)cc2)CC1 [Usistapide] | inactive: -1.03 | inactive: -0.379 | inactive: 1.92 |
| Cc1nc2c(cc1C(=O)N=C(N)N)CCCCC2COS(=O)(=O)O (stereo not given) | inactive: 0.641 | inactive: 0.153 | inactive: -2.01 |
| C[Si](C)(C)c1cc(C(=O)Nc2ccc(C(=O)O)cc2)cc([Si](C)(C)C)c1 | inactive: -1.19 | inactive: 1.21 | inactive: -0.393 |
| C=C(NC(=O)C(=C)NC(=O)c1csc(C2=NC3c4csc(n4)C4NC(=O)c5csc(n5)C(C(C)(O)C(C)O)NC(=O)C5CSC(=N5)/C(=C\C)NC(=O)C(C(C)O)NC(=O)c5csc(n5)C3(CC2)NC(=O)C(C)NC(=O)C(=C)NC(=O)C(C)NC(=O)C(C(C)CC)NC2C=Cc3c(C(C)O)cc(nc3C2O)C(=O)OC4C)n1)C(N)=O (stereo not given) | inactive: -0.644 | inactive: 1.97 | inactive: 4.14 |
| CCc1cc2c(cc1CC)CC(NC[C@H](O)c1ccc(O)c3[nH]c(=O)ccc13)C2 [indacaterol maleate] | inactive: 0.739 | inactive: 0.246 | inactive: 4.03 |
| Cn1c(Cc2ccc(Br)c(Oc3cc(Cl)cc(C#N)c3)c2F)n[nH]c1=O | inactive: -1.01 | inactive: -1.09 | inactive: -1.01 |
| O=C(Cc1ccccc1)c1cc(O)c(O)c([N+](=O)[O-])c1 | inactive: -0.443 | inactive: 0.542 | inactive: 0.953 |
| N=c1nc(N2CCCCC2)cc(N)n1O [Minoxidil] | inactive: -0.692 | inactive: -0.208 | inactive: 0.381 |
| N=c1nc(N2CCCCC2)cc(N)n1O [minoxidil] | – | inactive: 4.2 | – |
| CN1CCN(C2Cc3cc(Cl)ccc3Sc3ccccc32)CC1 (stereo not given) | inactive: 1.27 | inactive: -0.879 | inactive: 1.78 |
| CCC(C)C(N)C1=NC(C(=O)N[C@@H](CC(C)C)C(=O)N[C@H](CCC(=O)O)C(=O)N[C@H](C(=O)N[C@H]2CCCCNC(=O)[C@@H](CC(N)=O)NC(=O)[C@@H](CC(=O)O)NC(=O)[C@@H](Cc3cnc[nH]3)NC(=O)[C@@H](Cc3ccccc3)NC(=O)[C@@H]([C@@H](C)CC)NC(=O)[C@@H](CCCN)NC2=O)[C@@H](C)CC)CS1 (stereo not given in full) | inactive: 1.6 | inactive: -1.77 | inactive: 2.11 |
| CC1=C2[N+]3=C(C=C4[N+]5=C(C(C)=C6[N]7C(C(CC(N)=O)C6(C)CCC(=O)NCC(C)OP(=O)(O)OC6C(CO)OC(n8cnc9cc(C)c(C)cc98)C6O)C6(C)[N+](=C1C(CCC(N)=O)C6(C)CC(N)=O)[Co]753[CH3])C(CCC(N)=O)C4(C)C)C(CCC(N)=O)C2(C)CC(N)=O (stereo not given) | inactive: -0.697 | inactive: -1.62 | – |
| CCCC(=O)N1Cc2ccccc2CC2(CCCCN2CC)C1 (stereo not given) | inactive: 0.264 | – | inactive: 1.39 |
| CN(C)CC(c1ccc(O)cc1)C1(O)CCCCC1 (stereo not given) [desmethylvenlafaxine] | inactive: -1.02 | inactive: 1.06 | inactive: -0.308 |
| O=C(O)c1ccc2nc3ccccn3c(=O)c2c1 [doqualast] | inactive: -1.62 | inactive: -1.12 | inactive: 2.45 |
| C=CCSc1nnc(-c2cc(C(C)(C)C)c(O)c(C(C)(C)C)c2)s1 | inactive: -0.631 | inactive: 1.08 | inactive: -0.406 |
| CC/C(=C(/CC)c1ccc(OP(=O)(O)O)cc1)c1ccc(OP(=O)(O)O)cc1 | inactive: -1.59 | inactive: 2.24 | inactive: 0.538 |
| Cc1ccc(Cn2nc(-c3ccc(Cl)c(C)c3)cc2C(=O)N[C@@H]2C(C)(C)[C@@H]3CC[C@@]2(C)C3)cc1 | inactive: -0.644 | inactive: -0.849 | inactive: 1.2 |
| COc1ccc(C(C)=O)c(OCCCS(=O)(=O)c2ccccc2)c1 | inactive: -0.553 | inactive: -1.36 | inactive: -0.415 |
| CCCCCCCCCC[N+](C)(C)CCOC(=O)C12CC3CC(CC(C3)C1)C2 | inactive: -1.3 | inactive: -0.793 | inactive: 2.54 |
| CN(C(=O)CNc1nc(-c2ccc(C(F)(F)F)cc2)nc(-c2ccccc2)c1Cl)C1CC1 | inactive: -2.52 | inactive: 1.77 | inactive: 1.65 |
| OC1(c2ccccc2)C2=NCCCN2c2ccccc21 (stereo not given) | inactive: 0.121 | inactive: -2.51 | inactive: 0.301 |
| COc1cc(Nc2ncc3c(n2)-c2ccc(Cl)cc2C(c2c(F)cccc2OC)=NC3)ccc1C(=O)O [alisertib] | inactive: -0.8 | inactive: -1.44 | inactive: -0.12 |
| C[C@H](/C=C/[C@H](C)C(C)(C)O)[C@H]1CC[C@H]2/C(=C/C=C3C[C@@H](O)C[C@H](O)C3)CCCC12C (stereo not given in full) [Paricalcitol] | inactive: -0.674 | inactive: -1.34 | inactive: -1.48 |

Reference: the supplement of paper PMC10735217
